In PubChem BioAssay AID2685 (National Center for Advancing Translational Sciences (NCATS), 2010):
The list shows a part of the results. These are further read-outs of the screen, such as a control signal, another cell line or another target. No call is given for them. Most of these compounds were active or inconclusive in the main read-out, so they are no random draw. Potencies come from curve fits of mixed quality, noted in brackets.

Test: qHTS Assay for Lipid Storage Modulators in Drosophila S3 Cells;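 on cell number change: cells counted by Cell Tracker Red CMTPX staining in the red channel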
Settings: BODIPY lipid droplet fluorescence, 18-24 h; for cell number change: measured here: cell count max response, cells fed with added oleic acid
How it was run: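 Drosophila S3 cells got compounds at several concentrations plus oleic acid (400 uM solution). Laser-scanning cytometry with 488 nm excitation read lipid droplets at 500-530 nm and cells at 575-640 nm. Percent activity was relative to 20 uM Triacsin C.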

[1] = measured here: cell number channel AC50, cells fed with added oleic acid
[2] = measured here: lipid fluorescence (Fed channel) AC50, cells fed with added oleic acid

SMILES	cell number change [%]	AC50 [1]	AC50 [2]
c1ccc(Cn2nnnc2C(c2ccccn2)N2CCN(c3ccccc3)CC2)cc1 (stereo not given)	-6.05	–	–
Cc1onc(-c2ccccc2Cl)c1C(=O)OCC(=O)N1CCN(c2ccccc2)CC1	61.4	7.31 µM [rising, partial curve]	–
Cc1ccc(-n2c(SCC(=O)Nc3cc(C)on3)nc3c([nH]c4ccccc43)c2=O)cc1	58	0.58 µM [rising, partial curve]	0.082 µM [rising, full curve]
Cc1cc(C)cc(C(=O)O/N=C(\N)c2ccc(Br)cc2)c1	-25.5	–	0.103 µM [falling, full curve, poor fit]
COc1cccc(N=c2oc3ccc(OC)cc3cc2-c2nc3ccccc3[nH]2)c1	-24.2	3.66 µM [falling, single point]	0.13 µM [rising, full curve, poor fit]
COc1cc(C(=O)OC2CSCC2NC(=O)c2ccccc2)cc(OC)c1OC (stereo not given)	10.8	–	14.6 µM [rising, partial curve, poor fit]
COc1ccc(Oc2ccc(C(F)(F)F)cc2NC(=O)c2ccc(F)cc2)cc1	11.8	–	–
COc1ccccc1NC(=O)[C@H](COCc1ccccc1)NC(=O)OC(C)(C)C	-36.3	32.6 µM [falling, single point]	2.31 µM [rising, partial curve]
COC(Cc1nnc(SC)n1-c1ccc(Cl)cc1)OC	22.1	–	–
C/C(=N\Nc1nc(-c2cc(C)ccc2C)cs1)c1cc2c(ccc3ccccc32)oc1=O	27.3	0.92 µM [rising, full curve, poor fit]	2.59 µM [rising, partial curve]
CCOC(=O)c1ccc(-c2ccc(C3Nc4ccccc4C(=O)N3O)o2)cc1 (stereo not given)	5.1	–	23.1 µM [falling, partial curve, poor fit]
CCOC(=O)CN(C)Cc1cn[nH]c1-c1ccc2cc(OC)ccc2c1	-44.9	5.17 µM [falling, full curve]	20.6 µM [falling, single point]
COc1ccc2oc(C(=O)Nc3nnc(C)s3)c(C)c2c1	-42.2	29.1 µM [falling, single point]	3.26 µM [falling, partial curve]
O=C(/C=C/c1cccc([N+](=O)[O-])c1)N1CC[C@@]2(O)CCCC[C@H]2C1	30.6	3.26 µM [rising, partial curve]	0.103 µM [rising, full curve, poor fit]
Cc1cc(=O)c2cc(NC(=O)c3ccccc3Cl)ccc2[nH]1	2.91	–	–
COc1ccc(N2CCN(C(=O)CN3C(=O)NC4(CCCc5ccccc54)C3=O)CC2)cc1 (stereo not given)	-10.8	–	–
CC(C)C(=O)Nc1ncc(Cc2cccc(Cl)c2)s1	32.4	–	0.00517 µM [rising, full curve, poor fit]
O=C(CCc1ccccc1)NNC(=O)Nc1ccc(F)c(Cl)c1	-21.8	–	29.1 µM [falling, single point]
O=C(COC(=O)CC(c1ccccc1)c1ccccc1)Nc1ccc(F)c(F)c1	-65.6	23.1 µM [falling, single point]	–

An excerpt from above with just cell number change [%]:

| SMILES | cell number change [%] |
| --- | --- |
| Cc1onc(-c2ccccc2Cl)c1C(=O)OCC(=O)N1CCN(c2ccccc2)CC1 | 61.4 |
| O=C(/C=C/c1cccc([N+](=O)[O-])c1)N1CC[C@@]2(O)CCCC[C@H]2C1 | 30.6 |

Next records follow:

SMILES	cell number change [%]	AC50 [1]	AC50 [2]
CCS(=O)(=O)Nc1c(C(=O)O)[nH]c2ccccc12	–	0.731 µM [falling, full curve]	0.651 µM [falling, single point]
CCCCn1nnc(NC(=O)c2ccc(-c3ccccc3)cc2)n1	24.2	–	18.4 µM [rising, single point]
CSc1nc(NNC=O)cc(Oc2ccc(NC(C)=O)cc2)n1	-6.74	–	1.3 µM [rising, partial curve]
O=C(Cc1ncc(C(F)(F)F)cc1Cl)NCCc1ccccn1	-15.8	–	–
CCOC(=O)Cc1ccc2sc(-c3ccccc3)nc2c1	24.2	–	14.6 µM [rising, single point]
C=CCc1ccccc1OCCn1ccnc1	–	–	0.58 µM [rising, single point]
CN(C1CCCCC1)S(=O)(=O)c1cccc(C#N)c1	-23.9	0.146 µM [falling, partial curve, poor fit]	0.164 µM [falling, partial curve]
CCN(CC)c1ccc2c(Cl)cc(=O)oc2c1	13.1	–	0.731 µM [falling, full curve]
COc1ccc(NS(=O)(=O)c2ccc(C)c(NC(=O)NC3CCCCC3)c2)cc1	16.3	–	0.461 µM [rising, partial curve, poor fit]
N#CCCS(=O)(=O)c1nnnn1-c1ccccc1	-76.2	23.1 µM [falling, partial curve]	20.6 µM [falling, partial curve]
Cc1ccc(C2(C)NC(=O)N(CC(=O)Nc3cc(S(=O)(=O)N4CCOCC4)ccc3C)C2=O)cc1 (stereo not given)	5.55	–	5.8 µM [falling, full curve]
Cc1ccc(NC(=O)CC2S/C(=N/N=C3/NC(=O)CS3)NC2=O)cc1 (stereo not given)	-33.3	1.84 µM [falling, partial curve, poor fit]	–
Cc1[nH]c2ccccc2c1C(=O)C(=O)N1CCN(c2ccccc2Cl)CC1	6.6	–	–
Cc1cc2cc(CNC(=O)C3CC3)ccc2n1C	–	–	20.6 µM [rising, single point]
COc1ccc(-c2nn(-c3ccccc3C)cc2CNC(C)Cn2cncn2)cc1F (stereo not given)	25.5	–	–
COc1ccccc1CN(C)C(=O)CN1CCN(C(=O)c2cccs2)CC1	-16.4	–	1.46 µM [falling, partial curve]
COc1ccc(CCn2c(NN)nc3c2c(=O)[nH]c(=O)n3C)cc1	10	–	–
CCCS(=O)(=O)NCCc1csc(-c2ccc(OC)c(OC)c2)n1	14.9	4.11 µM [rising, single point]	–
CCOC(=O)C1=C(C)N=c2s/c(=C\c3cccc(OCC(=O)O)c3)c(=O)n2C1c1ccccc1OC (stereo not given)	-49.9	29.1 µM [falling, single point]	29.1 µM [falling, single point]
